These are yes or no findings as the source states them, for the method shown. For some assays here: Binding seen in cells or lysates may run through a third protein. Some results given as binding are weak or reduced against the parent protein; the word gives no strength. For some assays here: Where a sequence is shown, tags or fusion partners need not be part of it.
Experiments:
[1] = target: T1, ZapA fused to the T18 domain of adenylate cyclase (E. coli (W3110)) (UniProt P0ADS2); test: two-hybrid
T1 sequence: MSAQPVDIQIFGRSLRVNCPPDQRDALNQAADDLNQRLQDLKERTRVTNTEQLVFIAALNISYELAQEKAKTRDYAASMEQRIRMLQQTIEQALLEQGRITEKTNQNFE

[2] = target: T2, H-SUMO-ZapA (E. coli (W3110)) (UniProt P0ADS2); test: pull-down
T2 sequence: T1 sequence

[3] = target: ZapA^C19A,T50C-GFP (E. coli (W3110)) (UniProt P0ADS2); test: cross-linking

Substance	binding [1]	also measured
FtsZ^1-316 fused to the T25 domain of adenylate cyclase (from UniProt P0A9A6 1-316) (domain or fragment)	binds	–
FtsZ (wild-type, untagged) (from UniProt P0A9A6 1-383)	–	binding [2]: binds weakly
FtsZ^N73C (from UniProt P0A9A6 1-383)	–	binding [3]: binds
FtsZ^1-316 F2A fused to the T25 domain of adenylate cyclase (from UniProt P0A9A6 1-316) (domain or fragment)	no binding	–
FtsZ^317-370 fused to the T25 domain of adenylate cyclase (from UniProt P0A9A6 317-370) (domain or fragment)	no binding	–
full length FtsZ fused to the T25 domain of adenylate cyclase (from UniProt P0A9A6 1-383)	binds	–
FtsZ^317-383 fused to the T25 domain of adenylate cyclase (from UniProt P0A9A6 317-383) (domain or fragment)	no binding	–
FtsZ^1-316 L178E fused to the T25 domain of adenylate cyclase (from UniProt P0A9A6 1-316) (domain or fragment)	no binding	–
